Measured values reported in paper PMC8985307.
These are yes or no findings as the source states them, for the method shown. In cells and extracts the contact can be indirect. Some entries that bind do so weakly or less than the wild type.

Sequences of proteins named here, by UniProt entry; tags and fusion partners are left off.
UniProt O75335: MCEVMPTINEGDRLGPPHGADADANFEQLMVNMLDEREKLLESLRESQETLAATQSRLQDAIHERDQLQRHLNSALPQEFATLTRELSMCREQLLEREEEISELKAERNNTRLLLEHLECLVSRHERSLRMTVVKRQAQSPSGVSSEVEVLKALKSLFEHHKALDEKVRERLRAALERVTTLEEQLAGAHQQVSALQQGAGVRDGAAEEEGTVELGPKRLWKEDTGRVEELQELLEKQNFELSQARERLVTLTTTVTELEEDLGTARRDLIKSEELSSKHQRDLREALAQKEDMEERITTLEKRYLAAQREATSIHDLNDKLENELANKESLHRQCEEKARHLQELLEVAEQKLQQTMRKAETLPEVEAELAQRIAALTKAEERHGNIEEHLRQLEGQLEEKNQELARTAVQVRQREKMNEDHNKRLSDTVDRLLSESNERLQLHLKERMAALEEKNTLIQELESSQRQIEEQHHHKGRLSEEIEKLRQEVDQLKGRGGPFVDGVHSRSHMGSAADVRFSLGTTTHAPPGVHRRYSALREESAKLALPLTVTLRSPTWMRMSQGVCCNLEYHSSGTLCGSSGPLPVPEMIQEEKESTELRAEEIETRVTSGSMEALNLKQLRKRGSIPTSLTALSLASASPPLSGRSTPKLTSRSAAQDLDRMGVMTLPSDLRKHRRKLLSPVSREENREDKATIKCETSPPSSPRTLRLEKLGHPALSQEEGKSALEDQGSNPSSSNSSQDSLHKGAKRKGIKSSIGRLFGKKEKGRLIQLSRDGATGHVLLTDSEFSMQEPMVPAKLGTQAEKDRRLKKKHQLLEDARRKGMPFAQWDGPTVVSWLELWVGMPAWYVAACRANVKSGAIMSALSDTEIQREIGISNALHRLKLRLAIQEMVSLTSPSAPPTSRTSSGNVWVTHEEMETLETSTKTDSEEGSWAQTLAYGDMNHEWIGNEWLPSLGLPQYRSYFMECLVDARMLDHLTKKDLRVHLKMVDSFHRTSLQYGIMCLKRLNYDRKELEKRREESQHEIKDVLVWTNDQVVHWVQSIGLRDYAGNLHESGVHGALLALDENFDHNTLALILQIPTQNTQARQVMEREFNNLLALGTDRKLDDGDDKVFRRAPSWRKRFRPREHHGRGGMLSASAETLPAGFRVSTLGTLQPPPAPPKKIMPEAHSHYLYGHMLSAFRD

Tests used:
[1] = biological target: protein tyrosine phosphatase receptor type F polypeptide interacting protein alpha 4 (PPFIA4) (human (endogenous in C4-2B and LNCaP)) (UniProt O75335); assay: co-IP; endogenous proteins in C4-2B whole cell (total) lysates; IgG as negative control; also in cells transfected with siNC or siPPFIA4
[2] = biological target: protein tyrosine phosphatase receptor type F polypeptide interacting protein alpha 4 (PPFIA4) (human (endogenous in C4-2B and LNCaP)) (UniProt O75335); assay: co-IP; cytoplasmic and mitochondrial extracts fractionated from C4-2B cells (Cell Mitochondria Isolation Kit); IgG as negative control; COXIV and tubulin as markers
[3] = biological target: protein tyrosine phosphatase receptor type F polypeptide interacting protein alpha 4 (PPFIA4) (human (endogenous in C4-2B and LNCaP)) (UniProt O75335); assay: co-IP; endogenous proteins in LNCaP cell lysates; IgG as negative control; cells with or without androgen deprivation (charcoal-stripped serum), or transfected with empty vector or PPFIA4 overexpression plasmid

Measured: binding

B1: methylenetetrahydrofolate dehydrogenase 2 (MTHFD2) (enzyme, UniProt P13995 36-350)
chain: EAVVISGRKLAQQIKQEVRQEVEEWVASGNKRPHLSVILVGENPASHSYVLNKTRAAAVVGINSETIMKPASISEEELLNLINKLNNDDNVDGLLVQLPLPEHIDERRICNAVSPDKDVDGFHVINVGRMCLDQYSMLPATPWGVWEIIKRTGIPTLGKNVVVAGRSKNVGMPIAMLLHTDGAHERPGGDATVTISHRYTPKEQLKKHTILADIVISAAGIPNLITADMIKEGAAVIDVGINRVHDPVTAKPKLVGDVDFEGVRQKAGYITPVPGGVGPMTVAMLMKNTIIAAKKVLRLEEREVLKSKELGVATN
binds: all assays above
